# PubChem BioAssay AID248 (DTP/NCI, 2004)
# The list does not hold the whole screen: it is rich in T/C values a quarter to a half above the control, in often repeated tests (any T/C) and in doses without a T/C. Other doses and runs of a compound stand elsewhere. T/C: endpoint of the treated group in % of that of the vehicle group. Some entries give survivors of the animals treated and no T/C: the source holds a T/C of zero for them, seemingly a mark for toxic or unscored doses. Some doses without a T/C left all or most animals alive at the check, yet need not have been tolerated: the source hardly ever lists a survival T/C far under the control, and the zero likely stands for such cases as well. Counts of survivors are from the toxicity check (mostly the fifth day) where no day follows; animals may have died later. Schedules are NCI's codes, taken here to give the interval after Q, in days (D) or hours (H), and the number of doses after X. Some entries were tested several times; the values are given in rising order. Some schedule codes hold Z or #, which are not explained here. Where survival is the endpoint, this PubChem deposit counts one and a half times the control or more as active, and values a quarter to a half above the control carry no call in these data; other NCI protocols may use other cut-offs.
# System: L1210 leukemia ip in BDF1 mice, survival T/C
# Assay: NCI In Vivo Anticancer Drug Screen. Data for tumor model L1210 Leukemia (intraperitoneal) in B6D2F1 (BDF1) mice
# Conditions: T/C endpoint: mean survival time, higher T/C = longer survival
# [1] = dose: 400.0 mg/kg/injection, schedule: Q01DX009 (ip), vehicle: carboxymethylcellulose (CMC)
# [2] = dose: 200.0 mg/kg/injection, schedule: Q04DX003 (ip), vehicle: saline
# [3] = dose: 50.0 mg/kg/injection, schedule: Q01DX009 (ip), vehicle: saline with Tween-80
# [4] = dose: 75.0 mg/kg/injection, schedule: Q01DX009 (ip), vehicle: saline with Tween-80
# [5] = dose: 200.0 mg/kg/injection, schedule: Q04DX003 (ip), vehicle: saline with Tween-80
# [6] = dose: 400.0 mg/kg/injection, schedule: Q04DX003 (ip), vehicle: saline with Tween-80
# [7] = dose: 400.0 mg/kg/injection, schedule: Q01DX009 (ip), vehicle: saline
# [8] = dose: 400.0 mg/kg/injection, schedule: Q04DX002 (ip), vehicle: saline
smiles,measurement,setting,value
Cc1c2oc3c(C)c([N+](=O)[O-])cc(C(=O)NC4C(=O)NC(C(C)C)C(=O)N5CCCC5C(=O)N(C)CC(=O)N(C)C(C(C)C)C(=O)OC4C)c3nc-2c(C(=O)NC2C(=O)NC(C(C)C)C(=O)N3CCCC3C(=O)N(C)CC(=O)N(C)C(C(C)C)C(=O)OC2C)c(N)c1=O (stereo not drawn),T/C,"dose: 200.0 micrograms/kg/injection, schedule: Q01DX009 (ip), vehicle: saline + alcohol",127 % of control
same,T/C,"dose: 300.0 micrograms/kg/injection, schedule: Q04DX003 (ip), vehicle: saline + alcohol",143 % of control
same,survivor count,"dose: 1600.0 micrograms/kg/injection, schedule: Q04DX003 (ip), vehicle: saline + alcohol",8 of 8
O=C(O)C1CC(Br)C(Br)CC1C(=O)Nc1ccc(Cl)c(Cl)c1 (stereo not drawn),survivor count,"dose: 400.0 mg/kg/injection, schedule: Q04DX002 (ip), vehicle: Klucel (hydroxypropylcellulose) (HPC)",0 of 3
Cc1ccc(Nc2nc(N)nc(N)c2N)cc1Cl,survivor count,"dose: 200.0 mg/kg/injection, schedule: Q01DX Z (ip), vehicle: saline",0 of 6
CCN(CC)C(C)CNc1cc(C)nc(/N=C(\N)Nc2ccc(Cl)c(Cl)c2)n1 (stereo not drawn),survivor count,"dose: 18.75 mg/kg/injection, schedule: Q01DX009 (ip), vehicle: Klucel (hydroxypropylcellulose) (HPC)",4 of 6
same,survivor count,"dose: 37.5 mg/kg/injection, schedule: Q01DX009 (ip), vehicle: Klucel (hydroxypropylcellulose) (HPC)",4 of 6
same,survivor count,"dose: 75.0 mg/kg/injection, schedule: Q01DX009 (ip), vehicle: Klucel (hydroxypropylcellulose) (HPC)",0 of 6
same,survivor count,"dose: 150.0 mg/kg/injection, schedule: Q01DX001 (ip), vehicle: other",1 of 6
same,survivor count,"dose: 150.0 mg/kg/injection, schedule: Q01DX009 (ip), vehicle: Klucel (hydroxypropylcellulose) (HPC)",0 of 6
same,survivor count,"dose: 300.0 mg/kg/injection, schedule: Q01DX001 (ip), vehicle: other",1 of 6
Cc1cccc(OC(=O)Nc2cccc(Cl)c2)c1,survivor count,[1],2 of 3 and 5 of 6
CN1CC=C(/C=C/c2cccc3ccccc23)CC1,survivor count,"dose: 150.0 mg/kg/injection, schedule: Q01DX009 (ip), vehicle: saline",2 of 6
same,survivor count,[2],0 of 6
same,survivor count,"dose: 225.0 mg/kg/injection, schedule: Q01DX009 (ip), vehicle: saline",0 of 6
same,survivor count,"dose: 335.0 mg/kg/injection, schedule: Q01DX009 (ip), vehicle: saline",0 of 6
same,survivor count,"dose: 400.0 mg/kg/injection, schedule: Q04DX003 (ip), vehicle: saline",0 of 6
O=C(c1ccc([N+](=O)[O-])cc1)N1CC1Cc1ccccc1 (stereo not drawn),survivor count,"dose: 400.0 mg/kg/injection, schedule: Q01DX001 (ip), vehicle: Klucel (hydroxypropylcellulose) (HPC)",1 of 6
CC1CC(=O)C(CN(C)C)C(C)(C)C1 (stereo not drawn),survivor count,"dose: 300.0 mg/kg/injection, schedule: Q01DX001 (ip), vehicle: saline",0 of 6
CCCCCCC(=O)N(CCCCC)CCCCC,survivor count,[1],3 of 3 and 6 of 6
S=C(N/N=C/c1ccccn1)N/N=C/c1ccccn1,T/C,"dose: 25.0 mg/kg/injection, schedule: Q01DX009 (ip), vehicle: saline with Tween-80",125 % of control
same,T/C,[3],137 % of control
same,survivor count,[4],3 of 6
same,survivor count,"dose: 100.0 mg/kg/injection, schedule: Q01DX009 (ip), vehicle: saline with Tween-80",3 of 6
same,survivor count,[5],1 of 6
same,survivor count,[6],0 of 6
Cn1ncc2c1NC(c1ccc(F)cc1)SCC2=O (stereo not drawn),T/C,"dose: 100.0 mg/kg/injection, schedule: Q01DX009 (ip), vehicle: gum acacia",131 % of control
same,T/C,"dose: 200.0 mg/kg/injection, schedule: Q01DX009 (ip), vehicle: gum acacia",129 % of control
O=C(OC(CCN1CCCCC1)c1ccccc1)c1ccccc1 (stereo not drawn),survivor count,[5],1 of 6
same,survivor count,[6],0 of 6
CC(=O)NC1=C(S(=O)(=O)O)c2ccccc2C1,survivor count,"dose: 200.0 mg/kg/injection, schedule: Q04DX002 (ip), vehicle: saline",3 of 3
O/N=c1/cc(-c2cccs2)ss1,survivor count,[7],3 of 6
Nn1cnc2c(=S)nc[nH]c21,T/C,"dose: 120.0 mg/kg/injection, schedule: Q01DX015 (ip), vehicle: other",143 % of control
same,survivor count,"dose: 600.0 mg/kg/injection, schedule: Q01DX001 (ip), vehicle: other",2 of 4
CCOC(=O)C1(C(C)C)OC2(O)CCCCCN2C1=O (stereo not drawn),survivor count,[8],3 of 3
Nc1ccc(Cc2ccncc2)cc1,survivor count,"dose: 25.0 mg/kg/injection, schedule: Q04DX002 (ip), vehicle: carboxymethylcellulose (CMC)",3 of 3
same,T/C,"dose: 100.0 mg/kg/injection, schedule: Q04DX002 (ip), vehicle: carboxymethylcellulose (CMC)","93, 97, 98, 105 % of control"
same,survivor count,"dose: 100.0 mg/kg/injection, schedule: Q04DX003 (ip), vehicle: carboxymethylcellulose (CMC)",3 of 6
same,survivor count,"dose: 200.0 mg/kg/injection, schedule: Q04DX002 (ip), vehicle: carboxymethylcellulose (CMC)",1 of 6
same,survivor count,"dose: 400.0 mg/kg/injection, schedule: Q04DX002 (ip), vehicle: carboxymethylcellulose (CMC)",1 of 3 and 5 of 6
O=C(O)C1(C(=O)O)CC(c2ccccc2)C1,survivor count,[4],6 of 6
O=[N+]([O-])c1cc([N+](=O)[O-])c(Cl)s1,survivor count,[3],5 of 6
OC/C=C/c1cccs1,survivor count,[8],0 of 3
Cc1ccc(N2C=Nc3ccc(C)cc3C2)cc1,survivor count,"dose: 400.0 mg/kg/injection, schedule: Q01DX009 (ip), vehicle: Klucel (hydroxypropylcellulose) (HPC)",5 of 6
same,survivor count,"dose: 400.0 mg/kg/injection, schedule: Q04DX003 (ip), vehicle: other",0 of 6
N#Cc1cccc(C[P+](c2ccccc2)(c2ccccc2)c2ccccc2)c1,survivor count,"dose: 50.0 mg/kg/injection, schedule: Q01DX009 (ip), vehicle: Klucel (hydroxypropylcellulose) (HPC)",1 of 6
same,survivor count,"dose: 100.0 mg/kg/injection, schedule: Q04DX003 (ip), vehicle: Klucel (hydroxypropylcellulose) (HPC)",1 of 6
same,survivor count,"dose: 200.0 mg/kg/injection, schedule: Q04DX003 (ip), vehicle: Klucel (hydroxypropylcellulose) (HPC)",0 of 6
same,survivor count,"dose: 400.0 mg/kg/injection, schedule: Q04DX003 (ip), vehicle: Klucel (hydroxypropylcellulose) (HPC)",0 of 6
C[n+]1csc(=S)[nH]1,survivor count,"dose: 200.0 mg/kg/injection, schedule: Q01DX009 (ip), vehicle: saline",3 of 6
same,survivor count,[7],0 of 6
c1ccc(N(c2ccccc2)N(c2ccccc2)c2ccccc2)cc1,survivor count,"dose: 25.0 mg/kg/injection, schedule: Q01DX009 (ip), vehicle: saline",6 of 6
same,survivor count,"dose: 50.0 mg/kg/injection, schedule: Q01DX009 (ip), vehicle: saline",6 of 6
same,survivor count,"dose: 100.0 mg/kg/injection, schedule: Q04DX003 (ip), vehicle: saline",6 of 6
same,survivor count,[2],6 of 6
same,survivor count,"dose: 400.0 mg/kg/injection, schedule: Q01DX001 (ip), vehicle: saline",6 of 6
O=S(=O)(O)c1ccccc1O,survivor count,"dose: 100.0 mg/kg/injection, schedule: Q01DX009 (ip), vehicle: saline",2 of 6
C[CH2][Sn]([F])([CH2]C)[CH2]C,survivor count,"dose: 12.5 mg/kg/injection, schedule: Q04DX002 (ip), vehicle: gum acacia",1 of 3
same,survivor count,"dose: 25.0 mg/kg/injection, schedule: Q04DX002 (ip), vehicle: gum acacia",0 of 3
same,survivor count,"dose: 50.0 mg/kg/injection, schedule: Q04DX002 (ip), vehicle: gum acacia",0 of 3
same,survivor count,"dose: 100.0 mg/kg/injection, schedule: Q04DX002 (ip), vehicle: gum acacia",0 of 3
same,survivor count,"dose: 200.0 mg/kg/injection, schedule: Q04DX002 (ip), vehicle: gum acacia",0 of 3
same,survivor count,"dose: 400.0 mg/kg/injection, schedule: Q04DX002 (ip), vehicle: gum acacia",0 of 3
